Measured values taken from the supplement of paper PMC6078165.
Values are relative to the signal before dosing, not to a vehicle control; the signal also falls without drug.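 Fibroblast labels name human fibroblasts: mostly primary ones from tissues such as uterus (C12385, HUF), lung (H6013), bone (Hs27A), adrenal (HADF) and skin (WS1), plus mammary HMF and breast cancer-associated Hs343T. The cancer cells are basal-like or mesenchymal-like triple-negative breast cancer lines. The paper calls a changed response a hit when it shifts by more than 3x the replicate standard deviation. The tissue of the other fibroblasts is not given here.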

Tested on: BT20
Test: relative JC-1 red fluorescence (viability) vs pre-drug, coculture with fibroblast (fraction); higher = more viable cancer cells
Conditions: 100 µM
Description: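 JC-1 labelled TNBC cells cocultured 1:1 (1,500 cells each) with CellTrace Violet stained primary or stromal fibroblasts in 384-well plates in FluoroBrite medium, treated with one of 42 anticancer drugs at 0.1, 1, 10 or 100 uM. JC-1 red fluorescence (mitochondrial integrity in cancer cells only) was read by plate reader every 8 h for 72 h. Values are normalised to each well's pre-drug value. The stock of one drug was tenfold lower, so its dose labels may be too high.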

CCc1c2c(nc3ccc(OC(=O)N4CCC(N5CCCCC5)CC4)cc13)-c1cc3c(c(=O)n1C2)COC(=O)[C@]3(O)CC [Irinotecan]
relative JC-1 red fluorescence
Conditions	8 h	16 h	24 h	32 h	40 h	48 h	56 h	64 h	72 h
coculture fibroblast: C12385	0.885	0.878	0.873	0.792	0.706	0.676	0.665	0.67	0.668
coculture fibroblast: H6013	0.868	0.85	0.933	0.91	0.954	0.88	0.927	0.83	0.92
coculture fibroblast: H6019	0.887	0.853	0.872	0.822	0.783	0.791	0.788	0.802	0.815
coculture fibroblast: H6076	0.814	0.88	0.927	0.87209	0.81	0.768	0.758	0.759	0.734
coculture fibroblast: H6231	0.794	0.966	0.904	0.836	0.783	0.734	0.723	0.709	0.694
coculture fibroblast: HADF	0.987	0.9795	0.976	0.935	0.902	0.873	0.893	0.892	0.88
coculture fibroblast: HCFa	0.886	0.916	0.97398	0.9119	0.8651	0.838	0.834	0.8257	0.805
coculture fibroblast: HCPF	0.809	0.9696	0.9296	0.882	0.844	0.793	0.757	0.738	0.706
coculture fibroblast: HHSteC	0.9603	0.837	0.862	0.918	0.874	0.835	0.828	0.822	0.808
coculture fibroblast: HMF	0.786	0.87	0.934	0.8424	0.781	0.732	0.696	0.675	0.646
coculture fibroblast: HPFa	0.979	0.9706	0.905	0.889	0.886	0.854	0.86	0.857	0.829
coculture fibroblast: HUF	0.93	0.887	0.878	0.766	0.722	0.689	0.693	0.696	0.688
coculture fibroblast: Hs5	0.9799	0.932	0.899	0.885	0.9	0.894	0.9	0.9	0.893
coculture fibroblast: Hs27A	0.823	0.894	0.769	0.866	0.831	0.828	0.75	0.848	0.862
coculture fibroblast: Hs343T	0.875	0.843	0.857	0.761	0.679	0.627	0.602	0.5817	0.5569
coculture fibroblast: WS1	0.88	0.848	0.851	0.787	0.744	0.723	0.712	0.69	0.682
